No constants are given. Whether binding was seen depends on the method and setting. In cells and extracts the contact can be indirect. Some binding calls cover weakened binding; strength is not graded here.
Molecular target: endogenous Gal-1 (BHK21 cells) (hamster (endogenous in BHK21)) (UniProt P48538)
Test: proximity ligation; in situ PLA (Duolink II) on endogenous proteins in BHK21 cells, serum starved 5 h, 100 ng/ml EGF for 10 min, fixed with methanol; Gal-1 siRNA as negative control

By UniProt entry, the sequences of proteins in these tests, tags left out.
UniProt P48538: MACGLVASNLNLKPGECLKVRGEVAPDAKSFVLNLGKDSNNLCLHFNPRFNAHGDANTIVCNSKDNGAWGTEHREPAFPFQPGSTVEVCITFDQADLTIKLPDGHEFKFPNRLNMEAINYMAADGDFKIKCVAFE
UniProt A0A9J7F3R3: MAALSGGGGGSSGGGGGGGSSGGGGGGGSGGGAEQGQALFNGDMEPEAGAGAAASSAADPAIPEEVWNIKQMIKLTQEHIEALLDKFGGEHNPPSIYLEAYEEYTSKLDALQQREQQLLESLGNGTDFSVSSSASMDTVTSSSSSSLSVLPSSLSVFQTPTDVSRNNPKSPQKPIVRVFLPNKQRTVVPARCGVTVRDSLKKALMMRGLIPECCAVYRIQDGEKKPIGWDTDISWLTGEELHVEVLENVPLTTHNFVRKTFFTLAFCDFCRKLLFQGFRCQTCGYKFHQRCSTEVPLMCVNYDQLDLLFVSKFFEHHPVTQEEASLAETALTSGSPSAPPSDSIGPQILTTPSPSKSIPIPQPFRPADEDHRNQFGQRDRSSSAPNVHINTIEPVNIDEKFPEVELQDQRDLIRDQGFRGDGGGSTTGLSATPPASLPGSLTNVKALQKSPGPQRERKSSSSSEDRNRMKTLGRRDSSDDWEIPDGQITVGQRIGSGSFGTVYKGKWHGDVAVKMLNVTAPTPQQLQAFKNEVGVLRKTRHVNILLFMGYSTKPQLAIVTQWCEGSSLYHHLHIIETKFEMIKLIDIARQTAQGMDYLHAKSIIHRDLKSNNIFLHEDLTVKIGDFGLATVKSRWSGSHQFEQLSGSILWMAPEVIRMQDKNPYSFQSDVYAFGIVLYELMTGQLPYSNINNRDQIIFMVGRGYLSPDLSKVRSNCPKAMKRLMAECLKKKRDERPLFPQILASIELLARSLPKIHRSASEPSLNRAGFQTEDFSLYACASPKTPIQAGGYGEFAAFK

binding | Substance
binds | endogenous B-Raf (BHK21 cells) (from UniProt A0A9J7F3R3 1-798)
binds | endogenous C-Raf (BHK21 cells) (from UniProt G3HVN3 1-648)
